Test results as given in ChEMBL document CHEMBL1157572 (J Med Chem, 2010).

Experiments:
Format in all cases: functional, cell-based
HT-29 = test: Antiproliferative activity against human HT-29 cells after 72 hrs by methylene blue dye assay; conditions: HT-29, 72 h
MKN-45 = test: Antiproliferative activity against human MKN45 cells after 72 hrs by methylene blue dye assay; conditions: MKN-45, 72 h
KB = test: Antiproliferative activity against human KB cells after 72 hrs by methylene blue dye assay

COc1cc2c(c(OC)c1OC)-c1ccc(OC)c(=O)cc1[C@@H](NC(C)=O)CC2 [COLCHICINE]
IC50 (HT-29): 13.2 nM
IC50 (MKN-45): 12.4 nM
IC50 (KB): 12 nM
